{
  "source": "the supplement of paper PMC8728848",
  "binders": {"B1": {"name": "DC-Sign-R (Homo sapiens), Q9H2X3 (protein)", "chain": "MSDSKEPRVQQLGLLEEDPTTSGIRLFPRDFQFQQIHGHKSSTGCLGHGALVLQLLSFMLLAGVLVAILVQVSKVPSSLSQEQSEQDAIYQNLTQLKAAVGELSEKSKLQEIYQELTQLKAAVGELPEKSKLQEIYQELTRLKAAVGELPEKSKLQEIYQELTRLKAAVGELPEKSKLQEIYQELTRLKAAVGELPEKSKLQEIYQELTELKAAVGELPEKSKLQEIYQELTQLKAAVGELPDQSKQQQIYQELTDLKTAFERLCRHCPKDWTFFQGNCYFMSNSQRNWHDSVTACQEVRAQLVVIKTAEEQNFLQLQTSRSNRFSWMGLSDLNQEGTWQWVDGSPLSPSFQRYWNSGEPNNSGNEDCAEFSGSGWNDNRCDVDNYWICKKPAACFRDE"}},
  "assay_in_all_cases": "glycan array binding signal (z-score within array); higher = stronger binding",
  "settings_in_all_cases": "glycan notation: IUPAC condensed, linker removed",
  "key": {"Fuc(a1-2)Gal": {"biological_target": "Fuc(a1-2)Gal", "procedure,_shortened": "(§1)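 Arrays were curated from the Consortium for Functional Glycomics database, 3228 in total, and kept only where the protein sequence was available. Binding is expressed as a within-array Z-score. This score was averaged across arrays of the same protein sequence at different concentrations or buffers and across linkers, and negative values can be read as non-binding.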"}, "Fuc(a1-2)Gal(b1-3)GalNAc": {"biological_target": "Fuc(a1-2)Gal(b1-3)GalNAc", "procedure,_shortened": "as §1"}, "[1]": {"biological_target": "Fuc(a1-2)Gal(b1-3)GalNAc(a1-3)[Fuc(a1-2)]Gal(b1-4)Glc", "procedure,_shortened": "as §1"}, "[2]": {"biological_target": "Fuc(a1-2)Gal(b1-3)GalNAc(a1-3)[Fuc(a1-2)]Gal(b1-4)GlcNAc", "procedure,_shortened": "as §1"}, "[3]": {"biological_target": "Fuc(a1-2)Gal(b1-3)GalNAc(b1-3)Gal", "procedure,_shortened": "as §1"}, "[4]": {"biological_target": "Fuc(a1-2)Gal(b1-3)GalNAc(b1-3)Gal(a1-4)Gal(b1-4)Glc", "procedure,_shortened": "as §1"}, "[5]": {"biological_target": "Fuc(a1-2)Gal(b1-3)GalNAc(b1-4)[Neu5Ac(a2-3)]Gal(b1-4)Glc", "procedure,_shortened": "as §1"}, "Fuc(a1-2)Gal(b1-3)GlcNAc": {"biological_target": "Fuc(a1-2)Gal(b1-3)GlcNAc", "procedure,_shortened": "as §1"}, "[6]": {"biological_target": "Fuc(a1-2)Gal(b1-3)GlcNAc(b1-2)Man(a1-3)[Fuc(a1-2)Gal(b1-3)GlcNAc(b1-2)Man(a1-6)]Man(b1-4)GlcNAc(b1-4)GlcNAc", "procedure,_shortened": "as §1"}, "[7]": {"biological_target": "Fuc(a1-2)Gal(b1-3)GlcNAc(b1-2)Man(a1-3)[Fuc(a1-2)Gal(b1-3)GlcNAc(b1-2)Man(a1-6)]Man(b1-4)GlcNAc(b1-4)[Fuc(a1-6)]GlcNAc", "procedure,_shortened": "as §1"}, "[8]": {"biological_target": "Fuc(a1-2)Gal(b1-3)GlcNAc(b1-3)Gal(b1-4)Glc", "procedure,_shortened": "as §1"}, "[9]": {"biological_target": "Fuc(a1-2)Gal(b1-3)GlcNAc(b1-3)GalNAc", "procedure,_shortened": "as §1"}, "[10]": {"biological_target": "Fuc(a1-2)Gal(b1-3)GlcNAc(b1-3)[Fuc(a1-2)Gal(b1-3)GlcNAc(b1-6)]GalNAc", "procedure,_shortened": "as §1"}, "[11]": {"biological_target": "Fuc(a1-2)Gal(b1-3)GlcNAc(b1-3)[Gal(b1-4)GlcNAc(b1-6)]Gal(b1-4)Glc", "procedure,_shortened": "as §1"}, "[12]": {"biological_target": "Fuc(a1-2)Gal(b1-3)GlcNAc(b1-3)[Neu5Ac(a2-6)Gal(b1-4)GlcNAc(b1-6)]Gal(b1-4)Glc", "procedure,_shortened": "as §1"}, "[13]": {"biological_target": "Fuc(a1-2)Gal(b1-3)GlcNAc6S", "procedure,_shortened": "as §1"}, "[14]": {"biological_target": "Fuc(a1-2)Gal(b1-3)[Fuc(a1-4)]GlcNAc", "procedure,_shortened": "as §1"}, "[15]": {"biological_target": "Fuc(a1-2)Gal(b1-3)[Fuc(a1-4)]GlcNAc(b1-2)Man(a1-3)[Fuc(a1-2)Gal(b1-3)[Fuc(a1-4)]GlcNAc(b1-2)Man(a1-3)]Man(b1-4)GlcNAc(b1-4)GlcNAc", "procedure,_shortened": "as §1"}, "[16]": {"biological_target": "Fuc(a1-2)Gal(b1-3)[Fuc(a1-4)]GlcNAc(b1-2)Man(a1-3)[Fuc(a1-2)Gal(b1-3)[Fuc(a1-4)]GlcNAc(b1-2)Man(a1-6)]Man(b1-4)GlcNAc(b1-4)[Fuc(a1-6)]GlcNAc(b1-4)[Fuc(a1-6)]GlcNAc", "procedure,_shortened": "as §1"}, "[17]": {"biological_target": "Fuc(a1-2)Gal(b1-3)[Fuc(a1-4)]GlcNAc(b1-3)[Fuc(a1-3)[Gal(b1-4)]GlcNAc(b1-6)]Gal(b1-4)Glc", "procedure,_shortened": "as §1"}, "[18]": {"biological_target": "Fuc(a1-2)Gal(b1-3)[Fuc(a1-4)]GlcNAc(b1-3)[Gal(b1-4)GlcNAc(b1-6)]Gal(b1-4)Glc", "procedure,_shortened": "as §1"}, "[19]": {"biological_target": "Fuc(a1-2)Gal(b1-4)Fuc(a1-3)]GlcNAc(b1-2)Man(a1-3)[Fuc(a1-2)Gal(b1-4)[Fuc(a1-3)]GlcNAc(b1-2)Man(a1-6)]Man(b1-4)GlcNAc(b1-4)GlcNAc", "procedure,_shortened": "as §1"}, "Fuc(a1-2)Gal(b1-4)Glc": {"biological_target": "Fuc(a1-2)Gal(b1-4)Glc", "procedure,_shortened": "as §1"}, "Fuc(a1-2)Gal(b1-4)Glc6S": {"biological_target": "Fuc(a1-2)Gal(b1-4)Glc6S", "procedure,_shortened": "as §1"}, "Fuc(a1-2)Gal(b1-4)GlcNAc": {"biological_target": "Fuc(a1-2)Gal(b1-4)GlcNAc", "procedure,_shortened": "as §1"}, "[20]": {"biological_target": "Fuc(a1-2)Gal(b1-4)GlcNAc(b1-2)Man", "procedure,_shortened": "as §1"}, "[21]": {"biological_target": "Fuc(a1-2)Gal(b1-4)GlcNAc(b1-2)Man(a1-3)[Fuc(a1-2)Gal(b1-4)GlcNAc(b1-2)Man(a1-6)]Man(b1-4)GlcNAc(b1-4)GlcNAc", "procedure,_shortened": "as §1"}, "[22]": {"biological_target": "Fuc(a1-2)Gal(b1-4)GlcNAc(b1-2)Man(a1-3)[Fuc(a1-2)Gal(b1-4)GlcNAc(b1-2)Man(a1-6)]Man(b1-4)GlcNAc(b1-4)[Fuc(a1-6)]GlcNAc", "procedure,_shortened": "as §1"}, "[23]": {"biological_target": "Fuc(a1-2)Gal(b1-4)GlcNAc(b1-2)[Fuc(a1-2)Gal(b1-4)GlcNAc(b1-4)]Man(a1-3)[Fuc(a1-2)Gal(b1-4)GlcNAc(b1-2)Man(a1-6)]Man(b1-4)GlcNAc(b1-4)GlcNAc", "procedure,_shortened": "as §1"}, "[24]": {"biological_target": "Fuc(a1-2)Gal(b1-4)GlcNAc(b1-3)Gal(b1-4)GlcNAc", "procedure,_shortened": "as §1"}},
  "note": "Some of the results follow.",
  "data": [
    {"binder": "B1", "values": [
      {"measurement": "glycan array binding signal (z-score)", "setting": "Fuc(a1-2)Gal", "result": -0.551},
      {"measurement": "glycan array binding signal (z-score)", "setting": "Fuc(a1-2)Gal(b1-3)GalNAc", "result": 0.223},
      {"measurement": "glycan array binding signal (z-score)", "setting": "[1]", "result": -0.276},
      {"measurement": "glycan array binding signal (z-score)", "setting": "[2]", "result": -0.447},
      {"measurement": "glycan array binding signal (z-score)", "setting": "[3]", "result": -0.369},
      {"measurement": "glycan array binding signal (z-score)", "setting": "[4]", "result": 0.121},
      {"measurement": "glycan array binding signal (z-score)", "setting": "[5]", "result": -0.074},
      {"measurement": "glycan array binding signal (z-score)", "setting": "Fuc(a1-2)Gal(b1-3)GlcNAc", "result": -0.168},
      {"measurement": "glycan array binding signal (z-score)", "setting": "[6]", "result": -0.647},
      {"measurement": "glycan array binding signal (z-score)", "setting": "[7]", "result": -0.795},
      {"measurement": "glycan array binding signal (z-score)", "setting": "[8]", "result": -0.64},
      {"measurement": "glycan array binding signal (z-score)", "setting": "[9]", "result": -0.441},
      {"measurement": "glycan array binding signal (z-score)", "setting": "[10]", "result": 0.098},
      {"measurement": "glycan array binding signal (z-score)", "setting": "[11]", "result": -0.694},
      {"measurement": "glycan array binding signal (z-score)", "setting": "[12]", "result": 0.765},
      {"measurement": "glycan array binding signal (z-score)", "setting": "[13]", "result": 0.232},
      {"measurement": "glycan array binding signal (z-score)", "setting": "[14]", "result": 0.843},
      {"measurement": "glycan array binding signal (z-score)", "setting": "[15]", "result": -0.001},
      {"measurement": "glycan array binding signal (z-score)", "setting": "[16]", "result": -0.596},
      {"measurement": "glycan array binding signal (z-score)", "setting": "[17]", "result": -0.051},
      {"measurement": "glycan array binding signal (z-score)", "setting": "[18]", "result": 1.26},
      {"measurement": "glycan array binding signal (z-score)", "setting": "[19]", "result": -0.341},
      {"measurement": "glycan array binding signal (z-score)", "setting": "Fuc(a1-2)Gal(b1-4)Glc", "result": -0.713},
      {"measurement": "glycan array binding signal (z-score)", "setting": "Fuc(a1-2)Gal(b1-4)Glc6S", "result": -0.652},
      {"measurement": "glycan array binding signal (z-score)", "setting": "Fuc(a1-2)Gal(b1-4)GlcNAc", "result": -0.01},
      {"measurement": "glycan array binding signal (z-score)", "setting": "[20]", "result": 1.11},
      {"measurement": "glycan array binding signal (z-score)", "setting": "[21]", "result": -0.805},
      {"measurement": "glycan array binding signal (z-score)", "setting": "[22]", "result": -0.884},
      {"measurement": "glycan array binding signal (z-score)", "setting": "[23]", "result": -0.8},
      {"measurement": "glycan array binding signal (z-score)", "setting": "[24]", "result": 0.137}
    ]}
  ]
}
